# The other results are listed elsewhere or left out. The main result of the screen is listed elsewhere. These columns were measured beside it and carry no call. The list favours compounds with an active or inconclusive main result. Potencies come from curve fits of mixed quality, noted in brackets.
# Assay: IkB Signaling
# Settings: ABC-DLBCL IkBa-CBG/CBR dual luciferase ratio (green luciferase fused to IkBa over red control in OCI-Ly3 lymphoma cells), 4 h
# In short: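 Curves were fitted separately to fusion (green), unfused (red) and ratio luminescence, then classed by r2, magnitude and activity. Cells: OCI-Ly3, 4 h compound plus doxycycline at 37C; 10 uM MG-132 defined full response.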
# [1] = measured here: control luc red channel unless noted
structure (smiles),measurement,setting,value
Cc1ccc(NC(=O)c2ccco2)cc1NC(=O)CSc1nnc(-c2cccs2)n1C,AC50,[1],"25.1 µM [falling, partial curve]"
COc1ccc(OC)c(S(=O)(=O)N2Cc3ccccc3CC2C(=O)Nc2ccc(Cl)cc2)c1 (centres undefined),AC50,[1],"7.94 µM [falling, partial curve]"
CCOc1ccc(-c2nn(-c3ccccc3)cc2C2NC(=O)NC(C)=C2C(=O)OC(C)C)cc1C (centres undefined),AC50,[1],"12.6 µM [falling, partial curve]"
CC1CCCCN1c1nc(-c2ccncc2)nc2ccccc12 (centres undefined),AC50,[1],"31.6 µM [falling, partial curve]"
O=C1C(c2ccc(F)cc2)N(Cc2ccccc2Cl)C(=O)CN1C1CCCCC1 (centres undefined),AC50,[1],"25.1 µM [falling, partial curve]"
CCn1c(Cn2nnc(-c3ccccc3)n2)nnc1SCc1ccc(Cl)c(Cl)c1,AC50,[1],"25.1 µM [falling, partial curve]"
COc1ccccc1NC(=O)CN1C(=O)CC(c2ccc(C)c(C)c2)=Nc2ccccc21,AC50,[1],"39.8 µM [falling, single point]"
CCCn1c(CN2CCN(C(=O)OCC)CC2)nc2c1c(=O)n(C)c(=O)n2C,AC50,measured here: IkB-luc green channel,"15.8 µM [rising, partial curve]"
same,AC50,measured here: control luc red channel,"0.794 µM [falling, full curve]"
Nc1ccccc1O,AC50,[1],"2.51 µM [falling, full curve]"
COc1ccc(N2CCN(S(=O)(=O)CCNC(=O)COc3cccc(OC)c3)CC2)cc1,AC50,[1],"0.316 µM [rising, partial curve]"
Cc1cccc(Cn2c(SCc3ccc(C(=O)N4CCC(C)CC4)cc3)nc3ccncc32)c1,AC50,[1],"12.6 µM [falling, partial curve]"
CCn1c(CN2CCCCC2)nc2cc(NC(=O)c3ccccc3[N+](=O)[O-])ccc21,AC50,[1],"3.16 µM [falling, partial curve]"
Cc1nn(-c2ccccc2)c(OC(=O)c2ccc(F)cc2)c1S(=O)(=O)c1ccccc1,AC50,[1],"3.16 µM [falling, full curve, poor fit]"
CCCn1cc(S(=O)(=O)c2ccc(C)cc2)c(=O)c2cc(OC)c(OC)cc21,AC50,[1],"39.8 µM [falling, single point]"
COc1cccc(NC(=O)C(=O)NCCc2csc(-c3ccc(C)cc3)n2)c1,AC50,[1],"0.251 µM [falling, full curve]"
CCOc1ccc(C(=O)Nc2ccc(C(=O)OCc3cc(=O)n4ccsc4n3)cc2)cc1,AC50,[1],"6.31 µM [falling, full curve]"
O=C(Nc1cccc2cccnc12)c1cccc2ccccc12,AC50,[1],"3.16 µM [rising, partial curve]"
S=C(Nc1ccccc1)Nc1nccs1,AC50,[1],"39.8 µM [rising, single point] [measured here: IkB-luc green channel]"
COc1cccc(N2CCN(C(=O)c3cc4c(=O)n(Cc5cccs5)ccc4nc3C)CC2)c1,AC50,[1],"31.6 µM [falling, single point]"
CN1CSC2=C(C#N)C(c3cccc(OCc4ccccc4)c3)CC(=O)N2C1 (centres undefined),AC50,[1],"39.8 µM [rising, single point] [measured here: IkB-luc green channel]"
Cc1ccc(CNC(=O)Cn2ncc3c([nH]c4ccc(C)cc43)c2=O)cc1,AC50,[1],"10 µM [rising, partial curve]"
COc1cc(C(=O)Nc2nc3c(s2)Cc2c(Br)ccc(OC)c2-3)cc(OC)c1OC,AC50,[1],"3.98 µM [falling, full curve]"
O=C(Nc1nnc(N2CCCCCC2)s1)Nc1ccccc1C(F)(F)F,AC50,[1],"39.8 µM [falling, single point]"
COc1ccc(Cl)cc1NC(=O)CSc1c2c(nc3ccccc13)CCC2,AC50,[1],"3.16 µM [falling, single point]"
O=C(c1oc2ccccc2c1CSCc1ccccc1)N1CCN(c2ncccn2)CC1,AC50,[1],"10 µM [falling, partial curve]"
Cc1ccc(NC(=O)NCCOCCn2c(=O)oc3ccccc32)cc1F,AC50,[1],"10 µM [falling, full curve]"
Clc1ccc(C(c2nnnn2C2CCCCC2)N(Cc2cccnc2)Cc2ccco2)cc1 (centres undefined),AC50,[1],"20 µM [falling, partial curve]"
Cc1cccc(NC(=O)c2c(NC(=O)c3ccccc3)sc3c2CCCC3)c1,AC50,[1],"25.1 µM [rising, partial curve] [measured here: IkB-luc green channel]"
N#CC1=C2SCN(c3ccc(F)cc3)CN2C(=O)CC1c1cccc(F)c1 (centres undefined),AC50,[1],"10 µM [falling, partial curve]"
CN1CCSc2ccc(C(=O)NCc3ccccc3F)cc21,AC50,[1],"25.1 µM [falling, single point]"
COC(=O)c1ccc(C(=O)OC)c(NC(=O)N2CC3CCCN3c3ccccc32)c1 (centres undefined),AC50,[1],"39.8 µM [rising, partial curve]"
CCOc1ccccc1NC(=O)CSc1nc2c([nH]c3ccccc32)c(=O)n1-c1ccccc1,AC50,[1],"0.0251 µM [falling, full curve, poor fit]"
Cc1ccc(Cl)cc1N1CCN(C(=O)c2cc3c(=O)n(C)c4ccccc4c3s2)CC1,AC50,[1],"12.6 µM [falling, partial curve]"
CCOC(=O)c1cccc(NC(=O)c2cc3sccc3n2C)c1,AC50,[1],"20 µM [falling, partial curve]"
CCn1c(=O)sc2cc(NC(=O)c3cccc(OC)c3)ccc21,AC50,[1],"15.8 µM [falling, partial curve]"
COc1ccc(C2CC(=O)c3c(C)nc(N4CCN(C=O)CC4)nc3C2)c(OC)c1 (centres undefined),AC50,[1],"0.2 µM [rising, partial curve]"
Cc1sc2nc(SCC(=O)c3cc(C)n(CC4CCCO4)c3C)n(C(C)C)c(=O)c2c1C (centres undefined),AC50,[1],"25.1 µM [falling, partial curve]"
N#CCSc1nnc(COc2cccc3ccccc23)n1-c1cccc(Cl)c1,AC50,[1],"31.6 µM [falling, single point]"
CCOc1ccc(Cn2c(CNS(=O)(=O)c3c(C)cc(C)cc3C)nc3cccnc32)cc1,AC50,[1],"39.8 µM [falling, single point]"
O=C(CSCc1nc2ccccc2[nH]1)N1CCN(c2ccc(F)cc2)CC1,AC50,[1],"1.26 µM [falling, full curve]"
CC(=O)c1ccc(NC(=O)c2ccc(NC(=O)CCS(=O)(=O)c3cccs3)cc2)cc1,AC50,[1],"10 µM [falling, partial curve]"
Cc1cccc(Cn2cc(S(=O)(=O)c3ccc(Cl)cc3)c(=O)c3cc4c(cc32)OCO4)c1,AC50,[1],"1 µM [falling, single point]"
Cc1cccc(OCCSc2nc3ccc(NC(=O)c4cccs4)cc3s2)c1,AC50,[1],"3.98 µM [falling, full curve]"
O=C(CCCc1cccs1)Nc1nc2c(s1)CCCC2,AC50,[1],"39.8 µM [falling, single point]"
Cc1ccc2nc(COc3cccc(NC(=O)COc4ccccc4F)c3)cc(=O)n2c1,AC50,[1],"0.0794 µM [falling, full curve]"
Cc1ccc(S(=O)(=O)N2CCN(C3CC(=O)N(Cc4ccccc4)C3=O)CC2)cc1C (centres undefined),AC50,[1],"20 µM [falling, partial curve]"
Cc1ccc(C)c(N2C(=O)CN=C2Nc2ccccc2Cl)c1,AC50,[1],"12.6 µM [falling, partial curve]"
Cc1ccc(-n2ncc(C(=O)N3CCN(c4ccccn4)CC3)c2C2CCN(C(=O)OC(C)(C)C)CC2)cc1,AC50,[1],"39.8 µM [falling, single point]"
N#Cc1nc(COc2ccc(-c3ccccc3)cc2)oc1NCCCN1CCOCC1,AC50,[1],"12.6 µM [falling, partial curve]"
Cc1ccc(NC(=O)c2cc(S(=O)(=O)N3CCCc4ccccc43)ccc2F)cc1F,AC50,[1],"20 µM [falling, partial curve]"
Cc1nc(-c2ccc(Cl)cc2)sc1CCNC(=O)c1ccc(C(F)(F)F)cc1,AC50,[1],"0.0794 µM [falling, full curve, poor fit]"
CCC(C(=O)Nc1ccccc1C(=O)OC)n1nc(C)c2c(C)n(-c3ccc(C)cc3)nc2c1=O (centres undefined),AC50,[1],"25.1 µM [falling, partial curve]"
COc1ccccc1C(=O)OCc1cc(=O)n2nc(C3CC3)sc2n1,AC50,[1],"15.8 µM [falling, partial curve]"
COc1cccc(OCCSc2nc3ccccc3n2CC(=O)N2CCCCC2)c1,AC50,[1],"15.8 µM [falling, partial curve]"
COC(=O)c1cc(-c2c(C)nn(-c3ccccc3)c2C)n[nH]1,AC50,[1],"6.31 µM [falling, partial curve]"
COc1ccc(OC)c(NC(=O)CSCc2cnn(-c3ccccc3)c2-n2cccc2)c1,AC50,[1],"15.8 µM [falling, partial curve]"
COc1cccc(-n2cc(C(=O)NCc3ccccc3OC)c3ccccc3c2=O)c1,AC50,[1],"1.58 µM [rising, full curve]"
Cn1c(=O)c2c(nc(NCc3ccccc3)n2CCCc2ccccc2)n(C)c1=O,AC50,[1],"20 µM [falling, partial curve]"
COC(=O)c1[nH]c2ccccc2c1NC(=O)CN1CCN(C/C=C/c2ccccc2)CC1,AC50,[1],"10 µM [falling, partial curve]"
O=C(Cn1cc2c(n1)CCCCC2)NCc1cccs1,AC50,[1],"12.6 µM [falling, partial curve]"
CC(=O)Nc1cc(C(=O)NCc2ccc(C)cc2)ccc1Sc1ccc(C)cc1,AC50,[1],"25.1 µM [falling, partial curve]"
O=C(Nc1nnc(-c2ccco2)s1)c1ccccc1,AC50,[1],"1.58 µM [falling, full curve]"
CCc1ccc(-c2nc(CN3CCCC(C(=O)N4CCN(c5cc(Cl)ccc5C)CC4)C3)c(C)o2)cc1 (centres undefined),AC50,[1],"15.8 µM [falling, partial curve]"

# Nothing new here: entries from further up.
structure (smiles),measurement,setting,value
CCOc1ccc(C(=O)Nc2ccc(C(=O)OCc3cc(=O)n4ccsc4n3)cc2)cc1,AC50,[1],"6.31 µM [falling, full curve]"
O=C(Nc1cccc2cccnc12)c1cccc2ccccc12,AC50,[1],"3.16 µM [rising, partial curve]"
S=C(Nc1ccccc1)Nc1nccs1,AC50,[1],"39.8 µM [rising, single point] [measured here: IkB-luc green channel]"
COc1cccc(N2CCN(C(=O)c3cc4c(=O)n(Cc5cccs5)ccc4nc3C)CC2)c1,AC50,[1],"31.6 µM [falling, single point]"
CN1CSC2=C(C#N)C(c3cccc(OCc4ccccc4)c3)CC(=O)N2C1 (centres undefined),AC50,[1],"39.8 µM [rising, single point] [measured here: IkB-luc green channel]"
